Laboratory results reported in PMC11165425.
Results are given in words; binding and its absence hold for the method and conditions named. Binding seen in cells or lysates may run through a third protein. Some entries that bind do so weakly or less than the wild type. Tags and fused reporters may be left off the sequences shown.

Chains of the proteins cited; added tags and fusions are not shown.
UniProt P61011: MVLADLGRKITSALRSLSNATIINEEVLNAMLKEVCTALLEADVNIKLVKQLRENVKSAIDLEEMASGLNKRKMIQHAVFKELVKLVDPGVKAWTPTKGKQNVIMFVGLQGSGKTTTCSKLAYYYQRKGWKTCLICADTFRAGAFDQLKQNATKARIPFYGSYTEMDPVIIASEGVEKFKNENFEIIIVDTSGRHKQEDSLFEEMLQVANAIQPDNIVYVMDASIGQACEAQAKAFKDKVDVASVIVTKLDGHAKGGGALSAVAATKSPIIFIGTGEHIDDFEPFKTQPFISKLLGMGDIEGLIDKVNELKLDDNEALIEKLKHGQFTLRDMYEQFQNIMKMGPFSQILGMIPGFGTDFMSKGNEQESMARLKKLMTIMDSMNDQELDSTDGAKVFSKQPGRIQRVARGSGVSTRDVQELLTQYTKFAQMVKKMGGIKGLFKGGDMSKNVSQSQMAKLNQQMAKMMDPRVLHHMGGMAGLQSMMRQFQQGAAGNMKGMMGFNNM

Tests used:
GFP-SRP19 (human) [1] = biological target: T1, GFP-SRP19 (human) (UniProt P09132); experiment: co-IP; GFP-Trap beads on total extracts of HEK293 Flp-In T-REx cells expressing the GFP-SRP protein for 3 h, without RNase A; RSB-150 buffer (10 mM Tris-HCl pH 7.5, 150 mM NaCl, 2.5 mM MgCl2) with 0.05% NP-40, 2 h at 4°C; Western blot
T1 sequence: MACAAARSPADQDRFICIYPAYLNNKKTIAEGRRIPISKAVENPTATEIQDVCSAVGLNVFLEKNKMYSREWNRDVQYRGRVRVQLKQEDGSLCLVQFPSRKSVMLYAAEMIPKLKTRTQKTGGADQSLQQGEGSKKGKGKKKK

GFP-SRP72 (human) [2] = biological target: T2, GFP-SRP72 (human) (UniProt O76094); experiment: as above
T2 sequence: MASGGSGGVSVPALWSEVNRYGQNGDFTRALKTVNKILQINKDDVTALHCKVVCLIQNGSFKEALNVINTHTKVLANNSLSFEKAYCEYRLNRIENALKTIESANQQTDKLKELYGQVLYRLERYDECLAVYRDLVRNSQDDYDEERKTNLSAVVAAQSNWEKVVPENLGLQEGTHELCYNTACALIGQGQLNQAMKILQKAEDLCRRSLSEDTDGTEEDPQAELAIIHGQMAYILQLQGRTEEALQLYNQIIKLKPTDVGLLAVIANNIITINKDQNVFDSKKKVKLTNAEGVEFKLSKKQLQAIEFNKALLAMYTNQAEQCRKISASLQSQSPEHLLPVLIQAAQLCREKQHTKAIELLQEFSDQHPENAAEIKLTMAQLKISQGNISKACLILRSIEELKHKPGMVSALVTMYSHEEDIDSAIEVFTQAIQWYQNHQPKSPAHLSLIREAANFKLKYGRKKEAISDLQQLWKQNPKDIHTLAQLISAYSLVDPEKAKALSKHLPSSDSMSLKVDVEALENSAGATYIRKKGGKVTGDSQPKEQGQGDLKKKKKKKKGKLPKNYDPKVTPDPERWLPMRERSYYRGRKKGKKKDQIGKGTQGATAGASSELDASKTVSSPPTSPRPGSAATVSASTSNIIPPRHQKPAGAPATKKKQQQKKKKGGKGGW

GFP-SRP19 (human) [3] = biological target: T1, GFP-SRP19 (human); experiment: co-IP; GFP-Trap beads on total extracts of U2OS Flp-In T-REx cells expressing the GFP-SRP protein for 12 h; RSB-150 buffer with 0.05% NP-40, 2 h at 4°C; Western blot
GFP-SRP72 (human) [4] = biological target: T2, GFP-SRP72 (human); experiment: as above

Measured: binding

SRP54 (from UniProt P61011 1-504)
binds: GFP-SRP19 (human) [1] | GFP-SRP72 (human) [2] | GFP-SRP19 (human) [3] | GFP-SRP72 (human) [4]

B1: SRP19 (protein, UniProt P09132 1-144)
chain: MACAAARSPADQDRFICIYPAYLNNKKTIAEGRRIPISKAVENPTATEIQDVCSAVGLNVFLEKNKMYSREWNRDVQYRGRVRVQLKQEDGSLCLVQFPSRKSVMLYAAEMIPKLKTRTQKTGGADQSLQQGEGSKKGKGKKKK
binds: GFP-SRP72 (human) [2] | GFP-SRP72 (human) [4]

B2: SRP72 (protein, UniProt O76094 1-671)
chain: MASGGSGGVSVPALWSEVNRYGQNGDFTRALKTVNKILQINKDDVTALHCKVVCLIQNGSFKEALNVINTHTKVLANNSLSFEKAYCEYRLNRIENALKTIESANQQTDKLKELYGQVLYRLERYDECLAVYRDLVRNSQDDYDEERKTNLSAVVAAQSNWEKVVPENLGLQEGTHELCYNTACALIGQGQLNQAMKILQKAEDLCRRSLSEDTDGTEEDPQAELAIIHGQMAYILQLQGRTEEALQLYNQIIKLKPTDVGLLAVIANNIITINKDQNVFDSKKKVKLTNAEGVEFKLSKKQLQAIEFNKALLAMYTNQAEQCRKISASLQSQSPEHLLPVLIQAAQLCREKQHTKAIELLQEFSDQHPENAAEIKLTMAQLKISQGNISKACLILRSIEELKHKPGMVSALVTMYSHEEDIDSAIEVFTQAIQWYQNHQPKSPAHLSLIREAANFKLKYGRKKEAISDLQQLWKQNPKDIHTLAQLISAYSLVDPEKAKALSKHLPSSDSMSLKVDVEALENSAGATYIRKKGGKVTGDSQPKEQGQGDLKKKKKKKKGKLPKNYDPKVTPDPERWLPMRERSYYRGRKKGKKKDQIGKGTQGATAGASSELDASKTVSSPPTSPRPGSAATVSASTSNIIPPRHQKPAGAPATKKKQQQKKKKGGKGGW
binds: GFP-SRP19 (human) [1] | GFP-SRP19 (human) [3]

B3: SRP68 (protein, UniProt Q9UHB9 1-627)
chain: MAAEKQVPGGGGGGGSGGGGGSGGGGSGGGRGAGGEENKENERPSAGSKANKEFGDSLSLEILQIIKESQQQHGLRHGDFQRYRGYCSRRQRRLRKTLNFKMGNRHKFTGKKVTEELLTDNRYLLLVLMDAERAWSYAMQLKQEANTEPRKRFHLLSRLRKAVKHAEELERLCESNRVDAKTKLEAQAYTAYLSGMLRFEHQEWKAAIEAFNKCKTIYEKLASAFTEEQAVLYNQRVEEISPNIRYCAYNIGDQSAINELMQMRLRSGGTEGLLAEKLEALITQTRAKQAATMSEVEWRGRTVPVKIDKVRIFLLGLADNEAAIVQAESEETKERLFESMLSECRDAIQVVREELKPDQKQRDYILEGEPGKVSNLQYLHSYLTYIKLSTAIKRNENMAKGLQRALLQQQPEDDSKRSPRPQDLIRLYDIILQNLVELLQLPGLEEDKAFQKEIGLKTLVFKAYRCFFIAQSYVLVKKWSEALVLYDRVLKYANEVNSDAGAFKNSLKDLPDVQELITQVRSEKCSLQAAAILDANDAHQTETSSSQVKDNKPLVERFETFCLDPSLVTKQANLVHFPPGFQPIPCKPLFFDLALNHVAFPPLEDKLEQKTKSGLTGYIKGIFGFRS
binds: GFP-SRP19 (human) [1] | GFP-SRP72 (human) [2] | GFP-SRP19 (human) [3] | GFP-SRP72 (human) [4]
